Test [1] has as its target SmbHLH51 fused to the DNA-binding domain (Salvia miltiorrhiza). As to the kind of experiment: two-hybrid; Matchmaker Gold yeast two-hybrid system, yeast strain AH109; AtPAP1 on the activation domain (pGADT7), SmbHLH51 on the DNA-binding domain (pGBKT7); growth on synthetic dextrose/-Ade/-His/-Leu/-Trp medium; images on day 5.
Test [2] has as its target SmbHLH51 fused to the C-terminal domain of firefly luciferase (Salvia miltiorrhiza). As to the kind of experiment: split reporter; firefly luciferase complementation imaging (LCI); NLuc and CLuc constructs co-infiltrated by Agrobacterium GV3101 into tobacco leaves; Luc activity imaged with IVIS Spectrum.

Results are given in words; binding and its absence hold for the method and conditions named. Binding calls can cover weak binding; strength is not graded here. Sequences can lack the tags named with a protein. For some assays here: Binding seen in cells or lysates may run through a third protein.

B1: Arabidopsis thaliana production of anthocyanin pigment 1 (AtPAP1) fused to the activation domain (protein, UniProt Q9FE25 1-248)
chain: MEGSSKGLRKGAWTTEEDSLLRQCINKYGEGKWHQVPVRAGLNRCRKSCRLRWLNYLKPSIKRGKLSSDEVDLLLRLHRLLGNRWSLIAGRLPGRTANDVKNYWNTHLSKKHEPCCKIKMKKRDITPIPTTPALKNNVYKPRPRSFTVNNDCNHLNAPPKVDVNPPCLGLNINNVCDNSIIYNKDKKKDQLVNNLIDGDNMWLEKFLEESQEVDILVPEATTTEKGDTLAFDVDQLWSLFDGETVKFD
As to B1, the binding entry in test [1] is “binds”.

B2: AtPAP1 fused to the N-terminal domain of firefly luciferase (protein, UniProt Q9FE25 1-248)
chain: B1 chain
With B2, the binding entry in test [2] was “binds”.

The record behind these values is article PMC6255977.
